The assay deals with T1, ubiquitin-specific protease 8 (rat (endogenous in PC12)) (UniProt D3ZN39).
T1 sequence: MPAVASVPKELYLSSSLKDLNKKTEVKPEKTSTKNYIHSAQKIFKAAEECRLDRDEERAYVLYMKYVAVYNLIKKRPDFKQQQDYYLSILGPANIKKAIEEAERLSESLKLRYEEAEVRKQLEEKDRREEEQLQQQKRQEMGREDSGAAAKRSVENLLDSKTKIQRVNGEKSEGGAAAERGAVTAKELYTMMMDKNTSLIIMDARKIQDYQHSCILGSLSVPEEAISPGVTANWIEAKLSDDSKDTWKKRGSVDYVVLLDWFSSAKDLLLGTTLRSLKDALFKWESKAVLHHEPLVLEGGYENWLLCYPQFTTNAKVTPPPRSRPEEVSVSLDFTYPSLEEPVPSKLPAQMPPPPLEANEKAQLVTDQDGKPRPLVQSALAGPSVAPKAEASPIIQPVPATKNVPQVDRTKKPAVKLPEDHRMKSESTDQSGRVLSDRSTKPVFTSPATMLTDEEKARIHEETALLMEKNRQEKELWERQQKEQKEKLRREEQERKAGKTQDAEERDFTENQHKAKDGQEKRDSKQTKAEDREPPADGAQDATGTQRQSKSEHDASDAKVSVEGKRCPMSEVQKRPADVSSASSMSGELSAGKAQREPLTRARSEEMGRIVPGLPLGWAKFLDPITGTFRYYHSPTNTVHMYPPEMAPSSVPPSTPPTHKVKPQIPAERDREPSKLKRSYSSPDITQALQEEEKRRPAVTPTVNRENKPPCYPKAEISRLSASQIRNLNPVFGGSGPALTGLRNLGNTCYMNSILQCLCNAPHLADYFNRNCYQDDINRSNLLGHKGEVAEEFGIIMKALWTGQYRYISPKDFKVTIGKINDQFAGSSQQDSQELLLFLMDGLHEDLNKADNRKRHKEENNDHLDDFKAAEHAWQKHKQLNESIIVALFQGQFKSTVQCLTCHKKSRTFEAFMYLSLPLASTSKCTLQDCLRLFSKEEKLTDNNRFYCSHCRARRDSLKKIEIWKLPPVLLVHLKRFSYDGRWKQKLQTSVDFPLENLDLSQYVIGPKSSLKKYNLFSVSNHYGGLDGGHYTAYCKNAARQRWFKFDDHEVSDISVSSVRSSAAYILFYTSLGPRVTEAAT
Briefly: co-IP; PC12 cells under OGD treatment (also after infection with Ad-si-control, Ad-si-Nrdp1 or Ad-Nrdp1), lysed in RIPA buffer; supernatant incubated overnight at 4°C with 4 μg anti-USP8, Dynabeads protein A; immunoblot with anti-HIF-1α; control rabbit IgG.

Chains of the proteins cited; added tags and fusions are not shown.
UniProt O35800: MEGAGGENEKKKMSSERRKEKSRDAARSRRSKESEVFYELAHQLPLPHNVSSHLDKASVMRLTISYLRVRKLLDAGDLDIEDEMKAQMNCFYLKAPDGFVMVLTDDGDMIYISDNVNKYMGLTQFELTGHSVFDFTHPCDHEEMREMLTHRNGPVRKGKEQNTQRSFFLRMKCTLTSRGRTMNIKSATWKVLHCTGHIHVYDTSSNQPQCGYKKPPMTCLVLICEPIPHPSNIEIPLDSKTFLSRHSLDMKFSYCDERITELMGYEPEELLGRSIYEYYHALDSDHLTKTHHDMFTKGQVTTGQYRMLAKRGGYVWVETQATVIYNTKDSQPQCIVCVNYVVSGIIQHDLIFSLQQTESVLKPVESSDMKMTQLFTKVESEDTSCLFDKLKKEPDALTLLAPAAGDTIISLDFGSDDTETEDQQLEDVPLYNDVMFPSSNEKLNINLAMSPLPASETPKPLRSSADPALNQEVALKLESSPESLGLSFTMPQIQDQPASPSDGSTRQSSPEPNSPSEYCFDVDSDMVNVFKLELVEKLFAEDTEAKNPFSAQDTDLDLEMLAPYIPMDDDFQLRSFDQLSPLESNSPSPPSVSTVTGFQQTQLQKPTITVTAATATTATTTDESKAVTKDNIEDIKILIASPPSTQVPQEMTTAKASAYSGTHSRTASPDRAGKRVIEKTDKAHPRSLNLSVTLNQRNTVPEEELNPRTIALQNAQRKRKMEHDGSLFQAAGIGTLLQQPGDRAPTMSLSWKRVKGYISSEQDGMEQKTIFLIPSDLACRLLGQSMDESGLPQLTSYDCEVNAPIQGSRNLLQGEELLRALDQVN

Results are given in words; binding and its absence hold for the method and conditions named. Binding seen in cells or lysates may run through a third protein. Some results given as binding are weak or reduced against the parent protein; the word gives no strength.

For “hypoxia inducible factor-1α (from UniProt O35800 1-825)”, the binding entry is “binds”.

The values are drawn from PMC5611384.
